# Measurements reported in the supplement of paper PMC11732987, “Enantioselective OTUD7B fragment discovery through chemoproteomics screening and high-throughput optimisation” (Communications Chemistry, 2025).
# Sequences of proteins named here, by UniProt entry; tags and fusion partners are left off. A change or cut given only in a name is not applied to a line headed by its entry. Residues count along the entry.
# UniProt Q8IVH4, 174-194: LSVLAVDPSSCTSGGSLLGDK
# UniProt Q9ULK4: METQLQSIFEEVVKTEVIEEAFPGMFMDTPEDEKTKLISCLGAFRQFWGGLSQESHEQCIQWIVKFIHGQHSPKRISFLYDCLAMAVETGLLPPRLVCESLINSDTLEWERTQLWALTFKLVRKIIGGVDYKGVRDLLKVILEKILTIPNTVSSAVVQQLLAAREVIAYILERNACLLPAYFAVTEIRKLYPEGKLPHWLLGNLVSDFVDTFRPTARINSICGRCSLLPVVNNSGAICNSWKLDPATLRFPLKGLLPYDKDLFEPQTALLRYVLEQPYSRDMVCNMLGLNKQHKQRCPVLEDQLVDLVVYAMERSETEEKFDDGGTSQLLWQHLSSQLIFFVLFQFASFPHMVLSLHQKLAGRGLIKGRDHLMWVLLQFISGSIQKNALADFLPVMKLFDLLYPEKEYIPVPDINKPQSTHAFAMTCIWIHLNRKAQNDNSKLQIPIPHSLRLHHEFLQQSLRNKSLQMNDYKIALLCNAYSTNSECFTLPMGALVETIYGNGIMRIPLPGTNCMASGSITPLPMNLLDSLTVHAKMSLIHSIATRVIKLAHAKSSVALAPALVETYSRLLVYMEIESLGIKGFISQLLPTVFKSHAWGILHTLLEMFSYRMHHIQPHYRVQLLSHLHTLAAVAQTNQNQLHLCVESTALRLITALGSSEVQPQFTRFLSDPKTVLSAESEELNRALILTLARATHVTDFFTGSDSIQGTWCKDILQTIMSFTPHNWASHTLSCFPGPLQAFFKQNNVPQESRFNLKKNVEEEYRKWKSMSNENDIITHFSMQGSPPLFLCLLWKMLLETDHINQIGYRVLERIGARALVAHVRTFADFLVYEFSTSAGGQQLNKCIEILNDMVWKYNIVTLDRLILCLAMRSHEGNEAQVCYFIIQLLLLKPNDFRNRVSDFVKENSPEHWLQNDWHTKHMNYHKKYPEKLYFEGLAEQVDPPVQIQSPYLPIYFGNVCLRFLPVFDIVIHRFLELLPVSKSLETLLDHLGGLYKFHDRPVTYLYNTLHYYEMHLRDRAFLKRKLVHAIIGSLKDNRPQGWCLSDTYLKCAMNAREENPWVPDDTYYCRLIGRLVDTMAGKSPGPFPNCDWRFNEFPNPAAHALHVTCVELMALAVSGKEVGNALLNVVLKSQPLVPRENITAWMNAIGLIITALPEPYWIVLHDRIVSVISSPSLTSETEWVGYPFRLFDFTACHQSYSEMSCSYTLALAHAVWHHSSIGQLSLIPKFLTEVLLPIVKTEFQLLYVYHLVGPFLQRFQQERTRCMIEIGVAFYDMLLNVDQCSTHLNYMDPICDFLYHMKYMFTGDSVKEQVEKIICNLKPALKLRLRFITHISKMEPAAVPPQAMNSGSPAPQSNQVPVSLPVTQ
# UniProt Q9Y316: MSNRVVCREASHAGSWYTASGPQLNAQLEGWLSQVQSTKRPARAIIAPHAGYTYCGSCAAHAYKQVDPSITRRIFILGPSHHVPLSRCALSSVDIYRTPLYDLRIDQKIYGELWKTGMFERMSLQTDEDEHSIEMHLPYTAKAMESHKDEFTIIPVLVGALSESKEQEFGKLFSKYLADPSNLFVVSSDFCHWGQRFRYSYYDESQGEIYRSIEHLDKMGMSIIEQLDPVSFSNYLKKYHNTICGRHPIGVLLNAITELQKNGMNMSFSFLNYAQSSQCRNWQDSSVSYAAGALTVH
# UniProt Q14149: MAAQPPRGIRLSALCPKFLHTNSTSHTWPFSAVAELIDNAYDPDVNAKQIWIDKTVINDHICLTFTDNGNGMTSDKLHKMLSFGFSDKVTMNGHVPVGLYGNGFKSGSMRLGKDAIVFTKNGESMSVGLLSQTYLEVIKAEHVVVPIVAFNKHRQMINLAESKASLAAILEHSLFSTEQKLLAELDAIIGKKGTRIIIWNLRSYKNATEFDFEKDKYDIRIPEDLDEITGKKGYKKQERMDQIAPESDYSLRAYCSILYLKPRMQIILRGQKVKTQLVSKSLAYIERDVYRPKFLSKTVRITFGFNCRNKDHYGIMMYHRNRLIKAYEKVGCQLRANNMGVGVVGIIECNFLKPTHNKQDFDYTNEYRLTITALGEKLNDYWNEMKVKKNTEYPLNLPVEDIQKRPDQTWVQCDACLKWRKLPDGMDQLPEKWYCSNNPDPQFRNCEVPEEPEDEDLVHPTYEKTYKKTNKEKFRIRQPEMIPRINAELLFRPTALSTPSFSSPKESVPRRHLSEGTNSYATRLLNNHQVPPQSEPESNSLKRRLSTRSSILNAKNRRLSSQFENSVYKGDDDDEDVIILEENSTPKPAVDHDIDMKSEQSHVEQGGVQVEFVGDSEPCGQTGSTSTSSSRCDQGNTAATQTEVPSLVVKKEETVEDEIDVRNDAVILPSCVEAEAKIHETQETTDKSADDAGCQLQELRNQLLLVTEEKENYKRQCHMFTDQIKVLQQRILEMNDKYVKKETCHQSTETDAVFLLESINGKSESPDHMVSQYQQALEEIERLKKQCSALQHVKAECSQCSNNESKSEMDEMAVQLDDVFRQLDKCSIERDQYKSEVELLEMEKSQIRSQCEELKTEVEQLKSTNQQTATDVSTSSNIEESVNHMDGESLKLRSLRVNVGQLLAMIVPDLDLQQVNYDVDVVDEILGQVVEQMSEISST
# UniProt P29372, whole entry, looked up: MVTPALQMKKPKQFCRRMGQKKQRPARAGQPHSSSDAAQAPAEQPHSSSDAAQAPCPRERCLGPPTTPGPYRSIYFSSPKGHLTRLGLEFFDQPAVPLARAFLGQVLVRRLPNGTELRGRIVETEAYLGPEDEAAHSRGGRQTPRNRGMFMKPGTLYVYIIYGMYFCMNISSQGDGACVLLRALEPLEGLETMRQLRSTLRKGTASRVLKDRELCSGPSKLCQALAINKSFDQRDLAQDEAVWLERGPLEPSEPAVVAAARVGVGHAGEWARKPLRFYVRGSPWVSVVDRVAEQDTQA
# UniProt Q7L2J0: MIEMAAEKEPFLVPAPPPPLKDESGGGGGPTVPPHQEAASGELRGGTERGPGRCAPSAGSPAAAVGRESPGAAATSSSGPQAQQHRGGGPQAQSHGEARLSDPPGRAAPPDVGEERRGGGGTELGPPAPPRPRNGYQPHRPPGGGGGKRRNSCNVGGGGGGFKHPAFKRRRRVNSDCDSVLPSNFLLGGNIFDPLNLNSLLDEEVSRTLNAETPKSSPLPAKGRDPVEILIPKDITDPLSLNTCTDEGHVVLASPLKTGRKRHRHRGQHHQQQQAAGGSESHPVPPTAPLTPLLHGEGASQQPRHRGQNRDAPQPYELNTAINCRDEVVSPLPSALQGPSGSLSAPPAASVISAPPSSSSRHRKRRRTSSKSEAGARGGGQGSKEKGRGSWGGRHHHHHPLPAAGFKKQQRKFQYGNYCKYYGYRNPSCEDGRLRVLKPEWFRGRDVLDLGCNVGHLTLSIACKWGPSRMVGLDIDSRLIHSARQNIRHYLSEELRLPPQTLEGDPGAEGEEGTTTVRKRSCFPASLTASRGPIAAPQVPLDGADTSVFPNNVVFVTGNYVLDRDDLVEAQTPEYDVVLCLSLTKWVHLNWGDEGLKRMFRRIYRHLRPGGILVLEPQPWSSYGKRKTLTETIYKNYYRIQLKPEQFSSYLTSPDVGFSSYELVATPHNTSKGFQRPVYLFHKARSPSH
# UniProt A9UHW6: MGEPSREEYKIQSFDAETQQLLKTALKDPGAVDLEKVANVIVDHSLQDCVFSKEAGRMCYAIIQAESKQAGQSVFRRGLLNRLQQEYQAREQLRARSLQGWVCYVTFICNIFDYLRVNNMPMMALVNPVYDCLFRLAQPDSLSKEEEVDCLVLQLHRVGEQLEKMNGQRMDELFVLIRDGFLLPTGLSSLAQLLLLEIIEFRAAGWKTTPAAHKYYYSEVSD
# UniProt Q7Z3U7: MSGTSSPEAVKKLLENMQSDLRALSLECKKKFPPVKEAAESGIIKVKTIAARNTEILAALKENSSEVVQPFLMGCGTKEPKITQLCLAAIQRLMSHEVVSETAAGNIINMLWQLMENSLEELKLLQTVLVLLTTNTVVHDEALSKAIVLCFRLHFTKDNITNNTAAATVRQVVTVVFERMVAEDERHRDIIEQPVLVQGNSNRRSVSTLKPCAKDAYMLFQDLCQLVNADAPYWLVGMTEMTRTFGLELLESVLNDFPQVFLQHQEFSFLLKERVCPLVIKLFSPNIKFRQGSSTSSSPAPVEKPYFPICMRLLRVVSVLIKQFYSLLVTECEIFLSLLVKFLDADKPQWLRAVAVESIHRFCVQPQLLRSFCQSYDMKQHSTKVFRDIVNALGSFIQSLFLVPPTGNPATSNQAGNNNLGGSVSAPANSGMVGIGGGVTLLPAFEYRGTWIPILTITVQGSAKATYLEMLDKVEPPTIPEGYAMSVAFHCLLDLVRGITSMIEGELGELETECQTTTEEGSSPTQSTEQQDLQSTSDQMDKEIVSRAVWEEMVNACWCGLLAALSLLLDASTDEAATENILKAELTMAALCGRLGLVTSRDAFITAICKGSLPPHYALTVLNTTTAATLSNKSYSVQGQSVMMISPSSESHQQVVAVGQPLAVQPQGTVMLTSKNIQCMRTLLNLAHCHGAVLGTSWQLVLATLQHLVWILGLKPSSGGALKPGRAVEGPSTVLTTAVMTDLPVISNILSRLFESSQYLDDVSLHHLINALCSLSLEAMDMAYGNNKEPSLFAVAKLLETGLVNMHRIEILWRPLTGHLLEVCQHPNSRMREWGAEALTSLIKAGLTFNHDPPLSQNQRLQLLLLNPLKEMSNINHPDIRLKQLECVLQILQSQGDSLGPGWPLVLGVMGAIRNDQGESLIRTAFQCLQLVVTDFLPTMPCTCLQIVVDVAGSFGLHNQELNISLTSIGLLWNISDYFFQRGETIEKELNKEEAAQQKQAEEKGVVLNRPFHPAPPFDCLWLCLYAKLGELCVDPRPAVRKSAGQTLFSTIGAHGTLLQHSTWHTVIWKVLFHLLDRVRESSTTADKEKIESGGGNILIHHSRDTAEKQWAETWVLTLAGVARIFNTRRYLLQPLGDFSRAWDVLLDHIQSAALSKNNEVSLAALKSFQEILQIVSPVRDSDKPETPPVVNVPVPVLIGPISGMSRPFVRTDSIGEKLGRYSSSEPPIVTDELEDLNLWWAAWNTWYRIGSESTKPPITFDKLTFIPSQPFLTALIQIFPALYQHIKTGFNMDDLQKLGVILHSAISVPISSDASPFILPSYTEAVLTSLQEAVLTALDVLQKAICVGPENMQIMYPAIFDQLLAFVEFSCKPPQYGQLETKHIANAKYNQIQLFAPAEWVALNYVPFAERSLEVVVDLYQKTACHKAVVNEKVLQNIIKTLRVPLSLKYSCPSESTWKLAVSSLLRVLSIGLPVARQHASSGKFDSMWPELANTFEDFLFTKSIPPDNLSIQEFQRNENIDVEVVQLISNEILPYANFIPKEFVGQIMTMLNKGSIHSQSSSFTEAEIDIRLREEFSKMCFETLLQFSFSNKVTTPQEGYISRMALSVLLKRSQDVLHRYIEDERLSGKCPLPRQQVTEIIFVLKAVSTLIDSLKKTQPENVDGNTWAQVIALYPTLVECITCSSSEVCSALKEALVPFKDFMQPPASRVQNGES
# UniProt Q8N5J2: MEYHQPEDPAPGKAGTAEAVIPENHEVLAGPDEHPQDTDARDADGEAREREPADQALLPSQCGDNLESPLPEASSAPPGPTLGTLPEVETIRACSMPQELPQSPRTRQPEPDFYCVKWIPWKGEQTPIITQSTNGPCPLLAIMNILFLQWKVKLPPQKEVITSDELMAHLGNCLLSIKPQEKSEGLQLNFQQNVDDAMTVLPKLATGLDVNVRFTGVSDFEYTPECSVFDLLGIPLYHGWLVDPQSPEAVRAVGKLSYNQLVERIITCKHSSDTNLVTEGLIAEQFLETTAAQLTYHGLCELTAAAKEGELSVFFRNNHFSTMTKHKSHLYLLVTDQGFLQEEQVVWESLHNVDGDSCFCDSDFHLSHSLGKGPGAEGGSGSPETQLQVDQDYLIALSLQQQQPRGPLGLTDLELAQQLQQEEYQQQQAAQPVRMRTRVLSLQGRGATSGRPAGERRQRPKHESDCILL
# UniProt Q9BV79: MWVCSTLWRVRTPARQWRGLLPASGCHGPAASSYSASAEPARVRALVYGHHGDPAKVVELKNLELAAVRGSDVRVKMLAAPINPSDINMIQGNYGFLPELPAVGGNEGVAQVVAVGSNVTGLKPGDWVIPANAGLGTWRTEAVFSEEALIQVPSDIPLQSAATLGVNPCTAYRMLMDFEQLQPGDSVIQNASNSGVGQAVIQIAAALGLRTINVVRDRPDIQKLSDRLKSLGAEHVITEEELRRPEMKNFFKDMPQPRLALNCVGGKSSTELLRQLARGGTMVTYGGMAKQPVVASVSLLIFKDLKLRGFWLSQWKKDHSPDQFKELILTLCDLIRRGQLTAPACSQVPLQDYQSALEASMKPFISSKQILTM
# The list shows a part of the results. The data scatter; read single values as rough.
# Compound: ClCC(=O)N[C@H]1CCCc2ccccc12
# Test: log2 mean competition ratio of IA-DTB cysteine labelling (DMSO/compound) (log2 ratio); higher = stronger cysteine engagement by compound
# Details: 50 µM; treatment time: 4 h; cell line lysate: HEK293T
# Description: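 IA-DTB competitive cysteine chemoproteomics in HEK293T RIPA lysate. Lysates were treated with compound 29 or 30 at 50 or 200 µM for 4 h, then IA-DTB (500 µM, 1 h), trypsin-digested, NeutrAvidin-enriched and analysed by diaPASEF. Competition ratio = intensity DMSO / intensity compound (n=4 treated, n=64 DMSO); binding: mean log2 CR ≥ 1 and p ≤ 0.05 plus QC filters. Target is the cysteine site.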
row,Target,log2 mean competition ratio
1,MMS22L C121 (UniProt Q6ZRQ5),0.231
2,MMAA C184 (UniProt Q8IVH4),0.113
3,MED23 C1090 (UniProt Q9ULK4),-0.0291
4,MEMO1 C88 (UniProt Q9Y316),-0.481
5,MORC3 C435 (UniProt Q14149),-0.0709
6,MID1 C375 (UniProt O15344),-0.118
7,MPG C215 (UniProt P29372),-0.139
8,MEPCE C54 (UniProt Q7L2J0),-0.0783
9,MPST C65 (UniProt P25325),0.0274
10,METTL16 C253 (UniProt Q86W50),-0.323
11,MIF4GD C49 (UniProt A9UHW6),-0.464
12,MED15 C588 (UniProt Q96RN5),0.245
13,MEPCE C324 (UniProt Q7L2J0),0.25
14,MON2 C75 (UniProt Q7Z3U7),-0.014
15,MIX23 C74,-0.138
16,MMS19 C794 (UniProt Q96T76),0.115
17,MINDY1 C115 (UniProt Q8N5J2),0.217
18,MECR C263 (UniProt Q9BV79),0.179
19,MIGA1 C150,-0.202
20,MED1 C489 (UniProt Q15648),-0.28

# Same assay, conditions: 200 µM; treatment time: 4 h; cell line lysate: HEK293T
row,Target,log2 mean competition ratio
1,MMS22L C121 (UniProt Q6ZRQ5),-0.0299
2,MMAA C184 (UniProt Q8IVH4),0.144
3,MED23 C1090 (UniProt Q9ULK4),-0.0745
4,MEMO1 C88 (UniProt Q9Y316),-0.0242
5,MORC3 C435 (UniProt Q14149),-0.239
6,MID1 C375 (UniProt O15344),-0.51
7,MPG C215 (UniProt P29372),0.0994
8,MEPCE C54 (UniProt Q7L2J0),-0.0977
9,MPST C65 (UniProt P25325),-0.952
10,METTL16 C253 (UniProt Q86W50),0.347
11,MIF4GD C49 (UniProt A9UHW6),0.128
12,MED15 C588 (UniProt Q96RN5),0.0847
13,MEPCE C324 (UniProt Q7L2J0),0.31
14,MON2 C75 (UniProt Q7Z3U7),-0.196
15,MIX23 C74,-0.189
16,MMS19 C794 (UniProt Q96T76),-0.00939
17,MINDY1 C115 (UniProt Q8N5J2),-0.0364
18,MECR C263 (UniProt Q9BV79),0.0702
19,MIGA1 C150,0.0882
20,MED1 C489 (UniProt Q15648),-0.135
